In US20190270793A1:
These are yes or no findings as the source states them, for the method shown. Some results given as binding are weak or reduced against the parent protein; the word gives no strength. For some assays here: Tags and fused reporters may be left off the sequences shown.

Protein sequences, listed by entry. Tags and fused reporters are not part of them. Lines headed by an entry give the natural chain unless they say otherwise; changes in a name come on top. Chains listed by the source or under a name are the forms on record and can include a tag or linker.
PHF-tau (paired helical filament-tau), partially purified from postmortem cortex of an Alzheimer patient (P10636, form named): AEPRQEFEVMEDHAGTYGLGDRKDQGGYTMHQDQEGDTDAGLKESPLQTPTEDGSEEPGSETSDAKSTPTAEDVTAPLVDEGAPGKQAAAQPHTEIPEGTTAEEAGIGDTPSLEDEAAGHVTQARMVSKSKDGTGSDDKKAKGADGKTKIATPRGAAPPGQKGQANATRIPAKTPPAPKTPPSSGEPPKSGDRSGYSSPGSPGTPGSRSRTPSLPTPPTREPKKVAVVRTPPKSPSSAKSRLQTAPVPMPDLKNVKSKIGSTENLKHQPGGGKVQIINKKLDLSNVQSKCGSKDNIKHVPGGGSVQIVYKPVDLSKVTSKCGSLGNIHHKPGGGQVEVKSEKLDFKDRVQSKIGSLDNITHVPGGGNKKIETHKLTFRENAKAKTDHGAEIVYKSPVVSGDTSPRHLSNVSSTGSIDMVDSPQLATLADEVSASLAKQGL

Experiments:
[1] = biological target: PHF-tau (paired helical filament-tau), partially purified from postmortem cortex of an Alzheimer patient (human) (UniProt P10636); assay: SPR sensorgrams at 75, 15, 3 and 0.6 nM
[2] = biological target: PHF-tau (paired helical filament-tau), partially purified from postmortem cortex of an Alzheimer patient (human) (UniProt P10636); assay: SPR, antibody at 75, 15, 3 and 0.6 nM on PHF-tau
[3] = biological target: PHF-tau (paired helical filament-tau), partially purified from postmortem cortex of an Alzheimer patient (human) (UniProt P10636); assay: SPR
[4] = biological target: soluble tau (control tau; recombinant 2N4R tau, SEQ ID NO:31) (human) (UniProt P10636); assay: ELISA, full-length Tau coated at 1 ng/mL or 10 ng/mL
[5] = biological target: soluble tau (control tau; recombinant 2N4R tau, SEQ ID NO:31) (human) (UniProt P10636); assay: ELISA, 2N4R Tau coated at 10 ng/mL or 1 ng/mL
[6] = biological target: soluble tau (control tau; recombinant 2N4R tau, SEQ ID NO:31) (human) (UniProt P10636); assay: direct ELISA, hybridoma supernatant on 10 ng/well coated control tau
[7] = biological target: soluble tau (control tau; recombinant 2N4R tau, SEQ ID NO:31) (human) (UniProt P10636); assay: direct ELISA on coated 2N4R tau (10 ng/mL and 1 ng/mL), HRPO anti-mouse antibody, O.D. 450 nm
[8] = biological target: PHF-tau (paired helical filament-tau), partially purified from postmortem cortex of an Alzheimer patient (human) (UniProt P10636); assay: direct ELISA, hybridoma supernatant on 25 ng/well coated PHF-tau
[9] = biological target: PHF-tau (paired helical filament-tau), partially purified from postmortem cortex of an Alzheimer patient (human) (UniProt P10636); assay: SPR, Fab at 75, 15, 3 and 0.6 nM on PHF-tau

binding [1] | binding [2] | binding [3] | binding [4] | binding [5] | binding [6] | binding [7] | binding [8] | binding [9] | Binder
binds | binds | binds |  |  |  |  |  |  | PT82 mAb, recombinantly expressed (mouse IgG2a/kappa) (antibody, V domains shown) VH: EVKLEESGGGLVQPGGSMKLSCVASGFTFSNYWMNWIRQSPEKGLEWVAQIRLQSDNYATRYAESVKGRFTISRDESKTSVYLQMNNLRTEDTGIYYCTGGTTYWGQGTLVTVSA VL: DIVMTQSQKFMSTSVGDRVSITCKASQNVGTAVAWYQQKPGQSPKLLIYSASIRYTGVPDRFTGSGSGTDFTLTINYMQSEDLADYFCQQFSSYPYTFGGGTKLEIK
 |  |  | binds | binds | binds | binds | binds |  | PT82 from hybridoma supernatant (hybridoma-produced mouse monoclonal antibody) (antibody, V domains shown) VH: EVKLEESGGGLVQPGGSMKLSCVASGFTFSNYWMNWIRQSPEKGLEWVAQIRLQSDNYATRYAESVKGRFTISRDESKTSVYLQMNNLRTEDTGIYYCTGGTTYWGQGTLVTVSA VL: DIVMTQSQKFMSTSVGDRVSITCKASQNVGTAVAWYQQKPGQSPKLLIYSASIRYTGVPDRFTGSGSGTDFTLTINYMQSEDLADYFCQQFSSYPYTFGGGTKLEIK
binds |  | binds |  |  |  |  |  | binds | PT82 Fab (chimeric: mouse variable domains on human IgG1/kappa constant domains, His tag at the C-terminus of the heavy chain) (Fab, V domains shown) VH: EVKLEESGGGLVQPGGSMKLSCVASGFTFSNYWMNWIRQSPEKGLEWVAQIRLQSDNYATRYAESVKGRFTISRDESKTSVYLQMNNLRTEDTGIYYCTGGTTYWGQGTLVTVSA VL: DIVMTQSQKFMSTSVGDRVSITCKASQNVGTAVAWYQQKPGQSPKLLIYSASIRYTGVPDRFTGSGSGTDFTLTINYMQSEDLADYFCQQFSSYPYTFGGGTKLEIK
